Data taken from PubChem BioAssay AID2685 (National Center for Advancing Translational Sciences (NCATS), 2010).
Some of the results follow. The main result of the screen is listed elsewhere. These columns were measured beside it and carry no call. Most of these compounds were active or inconclusive in the main read-out, so they are no random draw. Potencies come from curve fits of mixed quality, noted in brackets.

Assay: qHTS Assay for Lipid Storage Modulators in Drosophila S3 Cells;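 as to cell number change: cells counted by Cell Tracker Red CMTPX staining in the red channel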
Settings: BODIPY lipid droplet fluorescence, 18-24 h; for cell number change: measured here: cell count max response, cells fed with added oleic acid
Outline: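 Drosophila S3 cells got compounds at several concentrations plus oleic acid (400 uM solution). Laser-scanning cytometry with 488 nm excitation read lipid droplets at 500-530 nm and cells at 575-640 nm. Percent activity was relative to 20 uM Triacsin C.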

[1] = measured here: cell number channel AC50, cells fed with added oleic acid
[2] = measured here: lipid fluorescence (Fed channel) AC50, cells fed with added oleic acid

COC(=O)C1=C(c2ccc(C(C)=O)cc2)C[C@@H]2CC[C@H]1N2C(=O)NCc1ccco1
cell number change: 1.36%

Cc1nn(Cc2ccccc2)c(C)c1C=C1C(=O)NC(=O)NC1=O
cell number change: 55.9% | AC50 [1]: 20.6 µM [rising, single point]

Cc1nn(Cc2ccccc2Cl)c(Cl)c1C(=O)O
cell number change: 1.36%

CCOC(=O)C1=C(N)OC2=C(C(=O)CCC2)C12C(=O)N(C)c1ccccc12 (stereo not given)
cell number change: -28% | AC50 [2]: 29.1 µM [falling, partial curve, poor fit]

COCCNC(=O)N1[C@H]2CC[C@@H]1C(C(=O)OC)=C(c1ccc(OC)c(OC)c1)C2
cell number change: -5.29% | AC50 [2]: 0.0326 µM [falling, partial curve, poor fit]

O=S(=O)(c1ccc(O)cc1)c1ccc(O)cc1
cell number change: 153% | AC50 [1]: 29.1 µM [rising, single point] | AC50 [2]: 29.1 µM [rising, single point]

CN1CCN(c2ccc([N+](=O)[O-])c(NCc3ccco3)c2)CC1
cell number change: -31.4% | AC50 [1]: 3.26 µM [falling, partial curve, poor fit] | AC50 [2]: 16.4 µM [rising, single point]

Oc1ccccc1-[n+]1c(-c2ccccc2)cc(-c2ccccc2)cc1-c1ccccc1
cell number change: 10.3%

C[C@]12CC[C@H]3[C@@H](CCC4=CC(=O)CC[C@@]43O)[C@@H]1CCC2=O
cell number change: 1.39% | AC50 [2]: 29.1 µM [rising, single point]

C[C@@]1([C@@H](NP(=O)(c2ccccc2)c2ccccc2)c2ccccc2)C[C@H]1CCO
cell number change: -32% | AC50 [1]: 29.1 µM [falling, partial curve] | AC50 [2]: 32.6 µM [falling, partial curve, poor fit]

C=CCn1c(O)c(C(C)=NCCCO)c(=O)[nH]c1=O
cell number change: 6.46% | AC50 [2]: 20.6 µM [falling, partial curve]

O=C1NC(=O)N(c2ccccc2)C(=O)/C1=C/c1ccc(Sc2ccccc2)o1
cell number change: -43.2% | AC50 [1]: 29.1 µM [falling, single point] | AC50 [2]: 16.4 µM [falling, single point]

COc1cc2c(cc1OC)C(C(=O)N(C)C1CCCCC1)C1CCCCN1C2=O (stereo not given)
cell number change: -41.7% | AC50 [1]: 9.2 µM [falling, partial curve]

Fc1ccc(Cn2nnnc2C(c2ccc(F)cc2)N2CC=C(c3ccc(F)cc3)CC2)cc1 (stereo not given)
cell number change: 38.5% | AC50 [1]: 6.51 µM [falling, single point] | AC50 [2]: 4.61 µM [rising, full curve, poor fit]

COC(=O)C1=C(c2ccc(OC)c(OC)c2)C[C@@H]2CC[C@H]1N2C(=O)NC1CC1
cell number change: -33.5% | AC50 [1]: 16.4 µM [falling, partial curve] | AC50 [2]: 2.06 µM [falling, full curve, poor fit]

O=c1[nH]c(=O)n(C2CCCCC2)c(O)c1/C=N/N1CCCCC1c1cccnc1 (stereo not given)
cell number change: 22.2% | AC50 [2]: 13 µM [rising, partial curve, poor fit]

COc1ccc(/C=C2/C(=O)NC(=O)N(Cc3ccco3)C2=O)cc1
cell number change: -4.35% | AC50 [2]: 6.51 µM [falling, single point]

CC(C)CC12CN3CCN(CC(C3)C1O)C2 (stereo not given)
cell number change: -0.264%

CCOc1cc2c(cc1OCC)-n1cccc1C(c1ccc(F)c(OC)c1)NC2 (stereo not given)
cell number change: -23.2% | AC50 [2]: 29.1 µM [falling, single point]

Cc1ccc(-n2c(C)nc3cc(Cl)ccc3c2=O)nc1
cell number change: 20.4%

CCOc1cccc(=NC2CCCCC2)c2c(C)[nH]c(C)c12
cell number change: -63.6% | AC50 [1]: 29.1 µM [falling, single point] | AC50 [2]: 13 µM [falling, partial curve]

CCCCC(=O)N/N=C/c1c(O)n(CC)c(=S)n(CC)c1=O
cell number change: -17.2% | AC50 [2]: 29.1 µM [falling, partial curve, poor fit]

COC(=O)c1nc(-c2ccc3c(n2)C(=O)C(N)=C(OC)C3=O)c(N)c(-c2ccc(OC)c(OC)c2O)c1C
cell number change: -44% | AC50 [1]: 29.1 µM [falling, single point] | AC50 [2]: 9.2 µM [falling, partial curve]

CCCCCCC(N)CC(=O)O (stereo not given)
cell number change: 6.72% | AC50 [2]: 29.1 µM [falling, single point]

COc1ccc(CNCCc2ccccc2F)c(OC)c1C
cell number change: 13.7% | AC50 [2]: 1.3 µM [rising, full curve]

CCCCn1c(O)c(C(CC)=Nc2ccc(OCC)cc2)c(=O)[nH]c1=O
cell number change: 6.56%

C/C(=N\N1CCCCCC1)c1c(O)n(-c2ccc(C)cc2)c(=O)[nH]c1=O
cell number change: -2.23% | AC50 [1]: 4.11 µM [rising, single point]

C=CCn1c(O)c(C(C)=Nc2cccc(C(F)(F)F)c2)c(=O)[nH]c1=O
cell number change: -16.2% | AC50 [2]: 0.146 µM [falling, full curve, poor fit]

CCOC(=O)c1c(C)n(Cc2ccccc2)c2ccc(OCC(O)Cn3nc(C)cc3C)cc12 (stereo not given)
cell number change: 19.2% | AC50 [2]: 6.51 µM [rising, single point]

CC(C)Oc1cc(-n2c(=S)[nH]c3ccccc3c2=O)c(Cl)cc1Cl
cell number change: 10.1% | AC50 [2]: 29.1 µM [falling, single point]

O=C(C(=O)N1CCOCC1)c1cn(Cc2ccccc2F)c2ccccc12
cell number change: 1.08% | AC50 [1]: 6.51 µM [rising, single point] | AC50 [2]: 1.46 µM [rising, full curve, poor fit]

Cn1c(=O)oc2cc(S(=O)(=O)N3CCc4ccccc4C3)ccc21
AC50 [1]: 0.146 µM [rising, full curve, poor fit]

C[C@]12CC[C@H](O)C[C@H]1CC[C@@H]1C2CC[C@]2(C)[C@@H](C3=CC(=O)OC3)[C@@H](O)C[C@]12O (stereo not given in full)
cell number change: -2.65% | AC50 [2]: 0.58 µM [rising, single point]

COc1ccc(N=Cc2c(O)n(C)c(=O)n(C)c2=O)cc1
AC50 [2]: 5.8 µM [rising, partial curve, poor fit]

Clc1ccc(CSC(Cn2ccnc2)c2ccc(Cl)cc2Cl)cc1 (stereo not given)
cell number change: -73.4% | AC50 [1]: 29.1 µM [falling, partial curve, poor fit] | AC50 [2]: 29.1 µM [falling, single point]

COC(=O)C1=C(c2c(C)noc2C)C[C@@H]2CC[C@H]1N2C(=O)N1CCC(C)CC1
cell number change: -3.39% | AC50 [2]: 0.116 µM [rising, partial curve, poor fit]

CC(C)CN1CCN(Cc2cccc3c2OCO3)CC1CCO (stereo not given)
cell number change: 16.6% | AC50 [2]: 9.2 µM [rising, partial curve, poor fit]

O=C(N/N=C/c1c(O)n(Cc2ccco2)c(=O)[nH]c1=O)c1ccccc1O
cell number change: -38.9% | AC50 [1]: 10.3 µM [falling, partial curve, poor fit] | AC50 [2]: 8.2 µM [falling, partial curve]

Cc1ccc(NC2=NCCCS2)c(C)c1C
cell number change: 2.67% | AC50 [1]: 0.82 µM [falling, full curve]

CC(=O)c1cc(C#N)c(N2CCN(C)CC2)nc1C
AC50 [2]: 0.58 µM [rising, single point]

CN1CCN(c2ccc([N+](=O)[O-])c3no[n+]([O-])c23)CC1
cell number change: -42.3% | AC50 [1]: 10.3 µM [falling, partial curve] | AC50 [2]: 5.8 µM [falling, full curve, poor fit]

CC1CN=C(NC(C)c2ccccc2)S1 (stereo not given)
cell number change: 1.59% | AC50 [1]: 2.06 µM [falling, single point] | AC50 [2]: 2.59 µM [falling, single point]

COC(=O)C1=C(c2ccc(OC(F)(F)F)cc2)C[C@@H]2CC[C@H]1N2C(=O)NCCc1ccccc1
cell number change: -21.9% | AC50 [2]: 0.651 µM [rising, partial curve, poor fit]

O=C(Cc1ccccc1)OCCN1CCCCC1
cell number change: -3.72% | AC50 [2]: 0.116 µM [falling, full curve, poor fit]

CCN(CC)C(=O)c1ccc(NC(=O)c2cccc(S(=O)(=O)N3CCN(Cc4ccccc4)CC3)c2)cc1
cell number change: 3.02% | AC50 [2]: 29.1 µM [rising, single point]

Cc1c(C(=O)O)cccc1-n1c(C)cc(/C=C2\C(=O)NC(=O)N(c3ccc4c(c3)OCO4)C2=O)c1C
cell number change: -30.8% | AC50 [1]: 32.6 µM [falling, single point]

C#C[C@]1(O)CC[C@H]2[C@@H]3CCC4=Cc5nc6nc7ccccc7n6cc5C[C@]4(C)[C@H]3CC[C@@]21C
cell number change: 4.02% | AC50 [1]: 0.517 µM [rising, full curve, poor fit] | AC50 [2]: 0.517 µM [rising, full curve]

CCOP(=O)(OCC)c1nc(-c2cccc3ccccc23)oc1N1CCCCC1
AC50 [1]: 29.1 µM [falling, single point]

OC(CNC1CCCCCCC1)c1ccccc1 (stereo not given)
cell number change: 19.7% | AC50 [1]: 2.59 µM [rising, single point] | AC50 [2]: 4.61 µM [rising, single point]

Fc1ccc(N2CCN(Cc3cc4c(cc3Br)OCO4)CC2)cc1
cell number change: 7.09%

O=c1[nH]c(=O)n(C2CCCCCC2)c(O)c1C=NCCCN1CCOCC1
cell number change: -13.6% | AC50 [1]: 1.03 µM [rising, partial curve, poor fit] | AC50 [2]: 29.1 µM [rising, single point]

O=P(O)(O)C#Cc1ccccc1
cell number change: -16.1% | AC50 [2]: 29.1 µM [falling, single point]

CCC(C)/C=C(C)/C=C/C1=CC2=C(Cl)C(=O)C(C)(OC(C)=O)C(=O)C2=CO1 (stereo not given)
cell number change: -36.8% | AC50 [1]: 23.1 µM [falling, partial curve, poor fit] | AC50 [2]: 1.84 µM [falling, partial curve]

CP(C)(=O)CCC(=O)O
cell number change: -60.3% | AC50 [1]: 29.1 µM [falling, single point] | AC50 [2]: 29.1 µM [falling, single point]
